In the supplement of paper PMC11348887:
Structures can show the parent of a compound that is named as a salt. ± gives the standard deviation of the averaged measurements. The list shows a part of the results. Small differences around the control level are noise. Where a SMILES comes first, the peptide text is derived from it. [ ]: non-standard residue; d: D form. The star is where a group is joined. Nle = CCCC[CH](N)C(=O)O; Cbz = O=C(OCc1ccccc1)*

Assays:
Details in all cases: 5 µM; treatment: days 7-14 after plating, readout day 21
[1] = system: hPSC-derived cortical neurons (WA09); experiment: nucleus area z-score vs screen plate; higher = larger nuclei (more mature)
[2] = system: hPSC-derived cortical neurons (WA09); experiment: total neurite length per nucleus (MAP2) z-score; higher = more neurite growth
[3] = system: hPSC-derived cortical neurons (WA09); experiment: nucleus roundness z-score vs screen plate; higher = rounder nuclei (more mature)
[4] = system: hPSC-derived cortical neurons (WA09); experiment: KCl-induced FOS+/EGR-1+ double-positive nuclei fraction z-score (KCl minus unstimulated); higher = stronger activity-induced IEG response

Compound | nucleus area z-score [1] | total neurite length per nucleus (z-score) [2] | nucleus roundness z-score [3] | KCl-induced FOS+/EGR-1+ double-positive nuclei fraction z-score [4]
O=c1oc2c(O)c(O)cc3c(=O)oc4c(O)c(O)cc1c4c23 [Ellagic acid] | 0.608 | 0.79 | 0.358 | -0.143
CC(=O)OCC(=O)NCCCOc1cccc(CN2CCCCC2)c1 [Roxatidine Acetate HCl] | -0.117 | 3.15 | 0.0458 | 2.04
Cc1ccccc1N1C(=O)c2cc(S(N)(=O)=O)c(Cl)cc2NC1C (stereo not given) [Metolazone] | 0.425 | 0.72 | 0.0121 | 1.47
CS(=O)(=O)CCNCc1ccc(-c2ccc3ncnc(Nc4ccc(OCc5cccc(F)c5)c(Cl)c4)c3c2)o1 | -0.656 | -0.909 | -0.541 | 1.48
CCCc1nn(C)c2c(=O)[nH]c(-c3cc(S(=O)(=O)N4CCN(C)CC4)ccc3OCC)nc12 [Sildenafil Mesylate] | -0.112 | -0.234 | -0.0789 | -0.749
Nc1c(CC(=O)O)cccc1C(=O)c1ccccc1 [Amfenac Sodium Monohydrate] | -0.00289 | 1.24 | 1.99 | 0.732
CC(C)C[C@@H](C=O)NC(=O)[C@H](CC(C)C)NC(=O)[C@H](CC(C)C)NC(=O)OCc1ccccc1 (Cbz-Leu-Leu-Leu-aldehyde) | -15.4 | -5.54 | 0.0165 | -0.373
O=C(NOCC1CC1)c1ccc(F)c(F)c1Nc1ccc(I)cc1Cl | 1.59 | 1.25 | 0.662 | 1.47
CC(C)NCCCn1c(Sc2cc3c(cc2I)OCO3)nc2c(N)ncnc21 | -8.93 | -4.81 | -5.32 | 2.31
CCNC(=O)c1noc(-c2cc(Cl)c(O)cc2O)c1-c1ccc(OC)cc1 | -10.9 | -3.52 | -1.26 | -0.43
COc1cc2nc(N3CCN(C(=O)C4CCCO4)CC3)nc(N)c2cc1OC (stereo not given) [Terazosin HCl] | 0.198 ± 1 | 0.0173 ± 0.48 | -0.542 ± 1.4 | 0.472 ± 0.054
OCc1ccccc1O[C@@H]1O[C@H](CO)[C@@H](O)[C@H](O)[C@H]1O [Salicin] | 0.0923 | -0.635 | -0.52 | 0.0877
Nc1[nH]nc2nnc(-c3c(-c4ccccc4)nn4ccccc34)cc12 | 0.638 | 1.98 | 1.26 | 1.19
C[C@H]1C[C@H]2[C@@H]3CCC4=CC(=O)C=C[C@]4(C)[C@H]3C(=O)C[C@]2(C)[C@@]1(O)C(=O)CO [Meprednisone] | 0.0966 | 0.266 | 0.347 | -0.0405
N[C@@H](CSCCB(O)O)C(=O)O | 0.692 | 0.569 | 0.692 | 0.738
Cn1c(=O)cc(N2CCC[C@@H](N)C2)n(Cc2cc(F)ccc2C#N)c1=O [Trelagliptin] | 0.858 | 0.108 | 0.249 | 0.919
C[C@H]1C[C@@H]2[C@H]([C@@H](O)C[C@@]3(C)[C@H]2CC[C@]3(O)C(=O)CO)[C@@]2(C)C=CC(=O)C=C12 [Methylprednisolone] | 0.0408 | -0.0864 | -0.393 | 0.112
C[C@@H]1O[C@@H](OC[C@H]2O[C@@H](Oc3c(-c4ccc(OCCO)c(OCCO)c4)oc4cc(OCCO)cc(O)c4c3=O)[C@H](O)[C@@H](O)[C@@H]2O)[C@H](O)[C@H](O)[C@H]1O [Troxerutin] | 0.825 | -0.0223 | -0.304 | 1.11
CCC[C@@H]1C[C@@H](C(=O)N[C@@H]([C@H]2O[C@H](SC)[C@H](OP(=O)(O)O)[C@@H](O)[C@H]2O)[C@H](C)Cl)N(C)C1 [Clindamycin Phosphate] | 0.286 | 0.813 | 0.316 | 1.57
CC(c1cc2ccccc2s1)N(O)C(N)=O (stereo not given) [Zileuton] | 0.109 | 0.534 | 0.129 | 0.714
COC(=O)Nc1nc2cc(Sc3ccccc3)ccc2[nH]1 [Fenbendazole] | -0.61 | -0.199 | -0.299 | 0.586
N[C@@H](CSCCCO)C(=O)O [Fudosteine] | 0.084 | 0.955 | 0.606 | 1.81
Nc1ncnc2c1ncn2[C@@H]1O[C@H](CO)[C@@H](O)[C@@H]1O [Vidarabine] | -0.29 | 2.13 | 0.665 | 1.98
Nc1ccc(C(=O)NCC(=O)O)cc1 [Sodium 4-aminohippurate Hydrate] | -0.136 | 1.35 | 1.67 | 1.02
C[C@]12CC[C@@H]3c4ccc(OC(=O)c5ccccc5)cc4CC[C@H]3[C@@H]1CC[C@@H]2O [Estradiol Benzoate] | 1.55 | -0.336 | 0.144 | 0.0887
CCC(CC)CC1(C(=O)Nc2ccccc2SC(=O)C(C)C)CCCCC1 | 1.75 | -0.007 | -0.0117 | -1.08
Nc1nc(Cl)nc2c1ncn2[C@@H]1O[C@H](CO)[C@@H](O)[C@@H]1F [Clofarabine] | -10.2 | -3.65 | -11.5 | -0.594
FC(F)c1nc2ccccc2n1-c1nc(N2CCOCC2)nc(N2CCOCC2)n1 | 0.421 | -0.293 | 0.0854 | 0.0471

Compound | nucleus area z-score [1] | total neurite length per nucleus (z-score) [2] | nucleus roundness z-score [3] | KCl-induced FOS+/EGR-1+ double-positive nuclei fraction z-score [4]
CCCOc1ccc(C(=O)OCCN(CC)CC)cc1N [Proparacaine HCl] | 0.909 | 0.471 | 0.454 | 0.541
Cc1cc(/C=C2/SC(=S)NC2=O)c(C)n1-c1cccnc1 [Optovin] | 0.84 | -0.513 | -0.348 | -1.18
CC(NCCc1ccc(O)cc1)C(O)c1ccc(O)cc1 (stereo not given) [Ritodrine HCl] | -0.557 | -0.473 | 0.259 | -0.0912
CN[C@@H]1[C@@H](O[C@H]2O[C@H](CO)[C@@H](N)[C@H](O)[C@H]2O)OC2C[C@@H](N)[C@@H](O[C@H]3[C@H](O)[C@@H](O)[C@H](N)C[C@@H]3N)OC2[C@@H]1O (stereo not given in full) [Apramycin Sulfate] | -2.37 | 0.0517 | 0.653 | -1.46
COC(=O)CC[C@H](NC(=O)[C@H](CC(=O)OC)NC(=O)OCc1ccccc1)C(=O)N[C@H](C(=O)N[C@@H](CC(=O)OC)C(=O)CF)C(C)C | 0.33 | 1.73 | 1.2 | 1.1
C=CC(=O)Nc1cccc(Oc2nc(Nc3ccc(N4CCN(C)CC4)cc3OC)ncc2Cl)c1 | -0.24 | 0.145 | 0.933 | 0.428
CC[C@@H]1/C=C(\C)C[C@H](C)C[C@H](OC)[C@H]2O[C@@](O)(C(=O)C(=O)N3CCCC[C@H]3C(=O)O[C@H](/C(C)=C/[C@@H]3CC[C@@H](O)[C@H](OC)C3)[C@H](C)[C@@H](O)CC1=O)[C@H](C)C[C@@H]2OC [Ascomycin (FK520)] | -2.74 | -1.82 | -3.87 | -1.08
OCc1ccc(O[C@@H]2O[C@H](CO)[C@@H](O)[C@H](O)[C@H]2O)cc1 [Gastrodin] | -0.0379 | -0.651 | -0.738 | -0.453
CCCCC(C=O)NC(=O)C(CC(C)C)NC(=O)C(CC(C)C)NC(C)=O (stereo not drawn) (Ac-Leu-Leu-[Nle]-aldehyde; configuration not given here) | -13.9 | -5.33 | -1.35 | -0.973
CCCCCCc1ccc(O)cc1O [Hexylresorcinol] | 0.182 | 1.06 | 0.271 | 1.32
O=C(c1ccc(Cl)cc1)N(Cc1ccccc1)C1CCCCC1 | 0.32 | 0.234 | 0.372 | 0.959
CN1CCN(c2ccc(C(=O)Nc3n[nH]c4ccc(Cc5cc(F)cc(F)c5)cc34)c(NC3CCOCC3)c2)CC1 [Entrectinib (RXDX-101)] | -14.6 | -4.17 | -5.46 | -2.51
COc1cccc2c1C(=O)c1c(O)c3c(c(O)c1C2=O)C[C@@](O)(C(=O)CO)C[C@@H]3O[C@H]1C[C@H](N)[C@@H](O)[C@H](C)O1 [Epirubicin HCl] | -11.5 | -6.1 | 1.14 | -0.719
CC(C)(C)c1nc(-c2cccc(NS(=O)(=O)c3c(F)cccc3F)c2F)c(-c2ccnc(N)n2)s1 | 4.29 | -2.13 | -2.7 | -0.39
CN(C)CCNC(=O)c1cccn2c(=O)c3cc4ccccc4cc3nc12 | -3.69 | -0.213 | -0.302 | 5.62
CC(=O)Nc1ccc(C(=O)Nc2ccccc2N)cc1 [CI994 (Tacedinaline)] | -12.9 | -0.0752 | -11.6 | 3.35
COC1=CC(c2cc3ccccc3[nH]2)=N/C1=C\c1[nH]c(C)cc1C [Obatoclax Mesylate (GX15-070)] | -8.56 | -2.71 | -8.57 | -0.356
O=C(Nc1ccccc1)c1ccccc1O [Salicylanilide] | 0.257 | 0.442 | 0.261 | 0.053
Cc1ccc(=O)n(-c2ccccc2)c1 [Pirfenidone] | 0.139 | -0.444 | 0.212 | 0.149
CC1(C)CC[C@]2(C(=O)O)CC[C@]3(C)C(=CC[C@@H]4[C@@]5(C)CC[C@H](O)C(C)(C)[C@@H]5CC[C@]43C)[C@@H]2C1 [Oleanolic Acid] | 0.204 | -0.519 | -1.02 | -1.13
O=C(Nc1ccc(S(=O)(=O)Nc2ccccc2Cl)c(Cl)c1)c1ccccn1 | 1.85 | -0.609 | -1.11 | 1.73
CO/N=C(\C(=O)N[C@@H]1C(=O)N2C(C(=O)O)=C(CSc3nnnn3C)CS[C@H]12)c1csc(N)n1 [Cefmenoxime hydrochloride] | 0.232 | -0.976 | -0.518 | 0.628
CCCC(CCC)C(=O)O [Valproic acid sodium salt (Sodium valproate)] | 0.363 | 1.33 | 0.751 | 0.294
COc1ccc2cc(CCC(C)=O)ccc2c1 [Nabumetone] | 0.539 | -0.00953 | 0.734 | 1.21
O=C(/C=C\n1cnc(-c2cc(C(F)(F)F)cc(C(F)(F)F)c2)n1)NNc1cnccn1 | -6.51 | -0.348 | -2.07 | -0.342
O=C(c1ccc(C(=O)N2CCC(N3CCCC3)CC2)c(Nc2ccccc2)c1)N1CCC(N2CCCC2)CC1 | 0.345 | 1.14 | 1.51 | 3.37

Part of the list above, reduced to KCl-induced FOS+/EGR-1+ double-positive nuclei fraction z-score [4].
Compound | KCl-induced FOS+/EGR-1+ double-positive nuclei fraction z-score [4]
CC(NCCc1ccc(O)cc1)C(O)c1ccc(O)cc1 (stereo not given) [Ritodrine HCl] | -0.0912
CN[C@@H]1[C@@H](O[C@H]2O[C@H](CO)[C@@H](N)[C@H](O)[C@H]2O)OC2C[C@@H](N)[C@@H](O[C@H]3[C@H](O)[C@@H](O)[C@H](N)C[C@@H]3N)OC2[C@@H]1O (stereo not given in full) [Apramycin Sulfate] | -1.46
